For this experiment, the target named is AibH1 subunit of AibH1H2, expressed from pET-Duet-AibH1H2 with the GroEL/ES-TF chaperones (Rhodococcus wratislaviensis). In words: crystal structure; sitting-drop vapor diffusion at room temperature in an anaerobic chamber; co-expressed, co-purified AibH1H2 at 6 mg/mL; molecular replacement with PDB 6M2I; both purified.

These are yes or no findings as the source states them, for the method shown. In cells and extracts the contact can be indirect. Binding calls can cover weak binding; strength is not graded here.

Take “AibH2 subunit of the 2-aminoisobutyric acid hydroxylase AibH1H2 (from UniProt A0A402C2Q3)”: the binding entry is reported as “binds”.

The record behind these values is paper PMC10401708, “Enzymatic Hydroxylation of Aliphatic C–H Bonds by a Mn/Fe Cofactor” (Journal of the American Chemical Society, 2023).
